# Library screening results

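Whole-cell assay for inhibitors of Mycobacterium tuberculosis growth, labelled Cornell in the record; the read-out is not stated. The concentration is filed as 10 mM, unlikely as a test dose, so the dose is not known. The record gives no direction; compounds strong in two other growth screens of this library score well above the rest, so higher reads as stronger inhibition. Size under these conditions: about 53,000 compounds, about 900 of them at 50% or above in at least one test.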

Results are given as percent effect.
How 0% and 100% were set is not recorded. Most values in the screen are low, and negative values occur.
The compounds are a random part of those screened.

{"compound": "CC(C(=O)Nc1cccc(Cl)c1SC(F)F)S(C)(=O)=O", "stereo": "centres unmarked", "Percent Effect": 9.54}
{"compound": "O=C(C1CC1)N1CCN(c2ccc(-n3cncn3)nn2)CC1", "Percent Effect": 17.47}
{"compound": "O=C(O)C(F)(F)F.O=C(O)C(F)(F)F.[H][C@]12CCC[C@@]1(COc1ccccn1)CN(Cc1cnn(C)c1)C2", "Percent Effect": -1.357}
{"compound": "Cn1nccc1C(=O)N1CCOC(Cc2ccc(F)cc2)C1", "stereo": "centres unmarked", "Percent Effect": 0.8881}
{"compound": "CCOCC1CN(Cc2ccc(F)cc2)Cc2nn(C)cc21.O=C(O)C(F)(F)F", "stereo": "centres unmarked", "Percent Effect": 7.674}
{"compound": "O=C(Nc1cc(C(F)(F)F)c[nH]c1=O)C1CCCNC1", "stereo": "centres unmarked", "Percent Effect": 33.26}
{"compound": "COc1ccc(OC)c(-c2nc(CN(C)Cc3nonc3C)c(C)o2)c1", "Percent Effect": 0.1902}
{"compound": "Cn1cc(CNCC2(N3CCCCC3)Cc3ccccc3C2)cn1", "Percent Effect": -6.116}
{"compound": "CC(C)c1cc(CN(C)C(=O)CN2CCCCC2=O)no1", "Percent Effect": -8.275}
{"compound": "COC(=O)C(C)(C)S(=O)(=O)c1ccc(Br)cc1", "Percent Effect": 11.89}
{"compound": "O=C(CN1CCOCC1)N1CCN(C2CCc3ccc(F)cc32)CC1", "stereo": "centres unmarked", "Percent Effect": -1.541}
{"compound": "CCC[C@H]1CN(Cc2ccc3c(c2)OCCO3)C[C@@H]1NC(=O)COC", "Percent Effect": 4.465}
{"compound": "CC1CS(=O)(=O)CCN1CCCc1ccc(Cl)cc1", "stereo": "centres unmarked", "Percent Effect": 28.96}
{"compound": "CC(C)CNC(=O)CN(C)S(C)(=O)=O", "Percent Effect": -14.88}
{"compound": "Cc1noc(CN(C)C2CCCN(Cc3noc(C4CC4)n3)C2)n1", "stereo": "centres unmarked", "Percent Effect": 7.866}
{"compound": "CC(C)Cc1cc(CC2(NCc3ccco3)COC2)no1", "Percent Effect": 21.93}
{"compound": "N#Cc1c(Cl)nsc1NCc1ccc(N2CCCC(C(N)=O)C2)cc1", "stereo": "centres unmarked", "Percent Effect": 80.86}
{"compound": "CN1CCN(C(=O)c2cc(-c3cccs3)cs2)CC1", "Percent Effect": -6.002}
{"compound": "[H][C@@]12CNC[C@]1([H])[C@H]2CN1CCC(c2nnc(CN(C)CCO)n2C)CC1", "Percent Effect": -7.639}
{"compound": "COCc1cc(NCc2cccnc2Oc2ccc(C)nc2)ncn1", "Percent Effect": 16.69}
{"compound": "Cc1noc(-c2ccc(-n3ncc(C(=O)O)c3C)nc2)n1", "Percent Effect": 11.73}
{"compound": "O=S(=O)(NCc1cccnc1OC1CCCC1)N1CCCCC1", "Percent Effect": 32.79}
{"compound": "CC(C)c1nc(CN(C)C(=O)CCS(=O)(=O)c2ccccc2)no1", "Percent Effect": 12.57}
{"compound": "Cc1ccsc1-c1nccn1CCN1CCCCC1CO", "stereo": "centres unmarked", "Percent Effect": -10.03}
{"compound": "Cc1cccc(NCc2nn(C)c(=O)[nH]2)c1", "Percent Effect": 2.546}
{"compound": "O=C(NCCc1ccn(-c2ccc(F)cc2)n1)C1CCCOC1", "stereo": "centres unmarked", "Percent Effect": 9.601}
{"compound": "O=C(O)C(F)(F)F.[H][C@@]12COC[C@]1(c1nnc(C)o1)CN(Cc1nccs1)C2", "Percent Effect": 30.04}
{"compound": "COCCN1CCc2ncnc(N(C)C)c2CC1", "Percent Effect": 0.4852}
{"compound": "CCS(=O)(=O)N1CCOC2(CCCN(c3cccc(C#N)c3)C2)C1", "stereo": "centres unmarked", "Percent Effect": 13.03}

Some entries from above, unchanged:

| compound | Percent Effect |
|---|---|
| `Cc1noc(-c2ccc(-n3ncc(C(=O)O)c3C)nc2)n1` | 11.73% |
| `CC(C)CNC(=O)CN(C)S(C)(=O)=O` | -14.88% |
| `[H][C@@]12CNC[C@]1([H])[C@H]2CN1CCC(c2nnc(CN(C)CCO)n2C)CC1` | -7.639% |
| `O=C(CN1CCOCC1)N1CCN(C2CCc3ccc(F)cc32)CC1` (centres unmarked) | -1.541% |

From ChEMBL document CHEMBL3988442, “University of Dundee, Small-Polar-MMV Screening Library” (2021).